{"source": "paper PMC8308721", "about": "(Pharmaceutics, 2021)", "key": {"[1]": {"details": "cited from earlier work"}, "female CD-1 mice": {"system": "female CD-1 mice", "test": "Hot-plate test", "type": "in vivo, mouse", "details": "morphine s.c. 10 mg/kg", "experimental": "Animal use and procedures were in accordance with the guidelines of The University of British Columbia animal care committee and the Canadian Council for Animal Care (CCAC, Protocol code: A17-0128, approval date: 30 August 2018). Experiments involved adult female CD-1 mice (25–30 g) housed under a 12 h light/dark cycle and had ad libitum access to rodent chow and water. Mice were allowed an acclimatization period of at least one week in the animal facility before experiments. Subcutaneous (s.c.) or intraperitoneal (i.p.) injections of drugs or vehicles were administered to animals at a volume of 10 mL/kg. […]\nA commercially available hot-plate analgesia meter consisting of a round aluminum surface with (25 cm diameter) from Harvard Apparatus (Holliston, MA, USA) was used. […] Thereafter, the baseline latency of each animal was measured on the hot surface (52.0 ± 0.1 °C, 30 s cut-off time to prevent tissue damage) until a nociceptive response was induced. […] The %MPE for each animal was calculated using this equation: %MPE = (LR − BR)/(MR − BR)100%, where LR, MR, and BR represent measured, maximum (30 s), and baseline (~5 s) response time, respectively. The AUC for each animal was calculated from the %MPE time courses using this equation: AUC = (%MPE(Tp1) + %MPE(Tp2))·(Tp2 − Tp1)/2, where Tp represents the time interval between adjacent time points on the curve. […]"}}, "data": [{"smiles": "CN1CC[C@]23c4c5ccc(O)c4O[C@H]2[C@@H](O)C=C[C@H]3[C@H]1C5", "note": "[morphine]", "values": [{"measurement": "maximum tolerated dose", "setting": "[1]", "value": 130, "unit": "mg/kg"}, {"measurement": "Antinociception AUC", "setting": "female CD-1 mice", "value": "138 ± 12", "unit": "%MPE·h"}]}]}
